In PubChem BioAssay AID485318 (Broad Institute, 2010) one finds activity change, negative = inhibition data, which are given here for 86 molecules.

By UniProt entry, the sequences of proteins in these tests, tags left out. Where a name states a change or a piece, a line headed by the entry shows the natural chain unless it says otherwise.
UniProt O15379: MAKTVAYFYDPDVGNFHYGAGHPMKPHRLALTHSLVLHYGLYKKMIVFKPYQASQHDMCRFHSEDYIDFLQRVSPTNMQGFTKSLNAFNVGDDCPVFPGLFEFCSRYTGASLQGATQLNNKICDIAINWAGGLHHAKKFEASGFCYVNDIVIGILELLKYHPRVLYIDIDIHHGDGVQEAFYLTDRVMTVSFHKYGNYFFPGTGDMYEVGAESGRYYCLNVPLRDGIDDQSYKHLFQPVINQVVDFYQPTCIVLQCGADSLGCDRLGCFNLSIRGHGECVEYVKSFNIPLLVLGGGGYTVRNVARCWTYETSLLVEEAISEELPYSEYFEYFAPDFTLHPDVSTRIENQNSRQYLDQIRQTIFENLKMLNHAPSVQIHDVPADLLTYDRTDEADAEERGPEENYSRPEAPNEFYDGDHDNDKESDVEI

The campaign covered roughly 1,400 compounds. Fewer than 10 were called active.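 How the source made its calls: active means fluorescence-lowering compounds whose fitted half-maximal concentration is at or below ten times the highest valid dose tested; inconclusive means flat curve at 30 to 70% inhibition, or poor fit; inactive means the rest.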 The list shows a part of the results.

The assay has as its target Histone deacetylase 3 (Homo sapiens) (UniProt O15379). Description: inhibition of human HDAC3 enzymatic activity – biochemical, fluorescence, cherry-picked samples, counter-screen for JMJD2C/GASC1 demethylase inhibitor project, dose response (AID 485318).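 Further: enzyme preincubated with compound before substrate and trypsin were added; 0% = neutral control wells and -100% = SAHA positive control wells.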 The settings on record: recombinant HDAC3, fluorogenic peptide/trypsin coupled; at 12 µM (top of the series). In general terms: The purpose of a counterscreen is to sort out artefacts and off-target activity.
Turning to `O=S1(=O)CCC(N=Nc2c(O)n(Cc3ccccc3)c3ccccc23)C1` (stereo unspecified), the activity change, negative = inhibition was inactive: -0.232%. As for `COc1ccc(N2C(=O)CSC23CCCCC3)cc1`, the activity change, negative = inhibition is inactive: 0.434%. For the molecule `CC(C)(C)c1ccc(C2(C)NC(=O)N(CC(=O)Nc3ccc4c(c3)OCO4)C2=O)cc1` (stereo unspecified), the activity change, negative = inhibition is inactive: 0.267%. On to `NS(=O)(=O)c1ccc(CNC(=S)Nc2ccc(F)c(Cl)c2)cc1`, for which the activity change, negative = inhibition was inactive: 0.414%. As to `CN(c1ccc(C(=O)O)cc1)S(=O)(=O)c1ccccc1`, the activity change, negative = inhibition was inactive: 0.224%. Consider `O=C(/C=C/c1cccs1)NC1CCS(=O)(=O)C1` (stereo unspecified), for which the activity change, negative = inhibition is inactive: -0.185%. Next, `C[C@]12c3[nH]c4ccccc4c3CCN1C(=O)C(CC(=O)NCc1cccc(C(F)(F)F)c1)C[C@@H]2C(=O)N1CCCCC1` (stereo partly specified): inactive: 0.131%. `Cc1cccc(NC(=O)CC2Nc3cccc4cccc(c34)NC2=O)c1` (stereo unspecified): the activity change, negative = inhibition is inactive: -0.526%. Take `CC(C)n1cnc2c(NCc3ccccc3)nc(NCc3ccccc3)nc21`: the activity change, negative = inhibition is inactive: -0.0993%. As for `CCCN(CC(=O)Nc1ccccc1C)C(=O)C1CCN(S(=O)(=O)c2ccccc2C(F)(F)F)CC1`, the activity change, negative = inhibition is inactive: 0.495%. As for `CCOC(=O)C1=C(N)Oc2ccc3ccccc3c2C1c1cccnc1` (stereo unspecified), the activity change, negative = inhibition is inactive: -0.152%.

With `COc1ccc(NC(=O)N(C)C[C@H]2Oc3ccc(NC(=O)CCC(F)(F)F)cc3C(=O)N([C@H](C)CO)C[C@@H]2C)cc1`, the activity change, negative = inhibition is inactive: 0.728%.

`CCc1ccc([C@@H]2CC=C(C(=O)O)[C@H](c3ccc(Br)cc3)N2S(=O)(=O)c2ccc(C)cc2)cc1`: the activity change, negative = inhibition was inactive: -0.057%. Turning to `O=C(NCC1CCCO1)C(c1ccc(F)cc1)N(CCCN1CCOCC1)C(=O)c1ccc(-c2ccccc2)[nH]1` (stereo unspecified), the activity change, negative = inhibition was inactive: 0.816%. Next, `CCN(CC(=O)Nc1ccc2c(c1)OCCO2)C(=O)CC1CCCC1`: inactive: 0.513%; `CC(=O)Nc1ccc(CN2CCN(c3cccc(C(F)(F)F)c3)CC2)cc1`: inactive: 1.03%; `c1csc(Cn2nnnc2CN2CCN(c3nc4ccccc4s3)CC2)c1`: inactive: 0.656%. Take `Cc1nnc(N(C)C(=O)c2ccccn2)s1`: the activity change, negative = inhibition was inactive: 0.663%. `Cc1c(C(c2ccc([N+](=O)[O-])cc2)c2c(C)n(C)n(-c3ccccc3)c2=O)c(=O)n(-c2ccccc2)n1C`: the activity change, negative = inhibition was inactive: 0.477%. Under `O=C(O)Cn1cc(/C=C2/SC(=O)N(CC(=O)N3CCCCCC3)C2=O)c2ccccc21` stands inactive: 0.469%; under `N#CCCn1c(SCC(=O)N2CCN(S(=O)(=O)c3ccccc3)CC2)nc2ccccc21`, inactive: 0.508%. Regarding `Oc1cc2ccccc2cc1-c1nnc2n1-c1ccccc1SC2`, the activity change, negative = inhibition is inactive: -0.266%.

For `Cc1cc(=S)c2cccc(C)c2[nH]1`, the activity change, negative = inhibition is inactive: -0.276%. In the case of `CCOC(=O)N1CCC(N2CCN(c3cc(C)ccc3C)CC2)CC1`, the activity change, negative = inhibition was inactive: 1.07%.

`CCn1c(CCn2ccnc2C)n[nH]c1=S`: the activity change, negative = inhibition was inactive: 0.292%. Turning to `COc1ccc(S(=O)(=O)C(C#N)c2nc3ccccc3nc2N2CCCCC2)cc1` (stereo unspecified), the activity change, negative = inhibition was inactive: 0.282%.

Consider `Cc1ccc(NC(=O)CSc2nnc(-c3cccs3)n2Cc2ccco2)cc1`, for which the activity change, negative = inhibition was inactive: -0.228%. Next, `CCOc1ccc(N2C(=O)CC(N(O)c3ccccc3)C2=O)cc1` (stereo unspecified): inactive: 0.801%; `CCOC(=O)Cc1ccc(NC(=O)c2ccc(C(C)(C)C)cc2)cc1`: inactive: 0.971%; `CCc1nnc(NC(=O)CCC(=O)N2CCN(Cc3ccc(Cl)cc3)CC2)s1`: inactive: -1.01%.

Consider `COc1ccc(-c2cc(C(F)(F)F)n3nc(C(=O)NCCCN4CCOCC4)cc3n2)cc1`, for which the activity change, negative = inhibition is inactive: 0.8%.

As for `COc1ccc(S(=O)(=O)N(C)C[C@H]2Oc3ccc(NC(=O)Cn4cnnn4)cc3C(=O)N([C@H](C)CO)C[C@@H]2C)cc1`, the activity change, negative = inhibition is inactive: 0.0417%.

For the molecule `O=C(Cn1cnc2c(OCc3ccccc3)ncnc21)N1CCN(c2ccccn2)CC1`, the activity change, negative = inhibition was inactive: 0.178%. Under `COc1ccc(CCNC(=O)N2c3ccccc3Sc3ccccc32)cc1` stands inactive: 1.25%; under `COc1ccccc1NC(=O)COC(=O)c1[nH]c(=O)[nH]c(=O)c1N`, inactive: -0.201%; under `COc1cc(C(C(=O)NC2CCCCC2)N(Cc2cccs2)C(=O)Cc2c[nH]c3ccccc23)cc(OC)c1OC` (stereo unspecified), inactive: 0.495%. Regarding `Cc1cc(C(=O)Nc2sc3c(c2C#N)CCC(C)C3)no1` (stereo unspecified), the activity change, negative = inhibition is inactive: 0.596%. With `O=C(OCc1c(Cl)cccc1Cl)c1cnccn1`, the activity change, negative = inhibition was inactive: -11.3%. As for `Cc1cccc(-n2cnc(C(=O)NNC(=S)Nc3ccccc3)c2)n1`, the activity change, negative = inhibition was inactive: 0.141%. Turning to `NC(=O)Cn1nc([N+](=O)[O-])nc1Oc1ccccc1F`, the activity change, negative = inhibition was inactive: 0.000497%. `NC(=O)C1CCN(C(=O)c2ccc(Oc3cc(Cl)cc(Cl)c3)o2)CC1`: the activity change, negative = inhibition is inactive: 1.65%. On to `CCN(C(=O)C(C)Sc1ccc(S(=O)(=O)N2CCOCC2)cn1)c1ccccc1` (stereo unspecified), for which the activity change, negative = inhibition was inactive: -0.226%. Consider `Cc1ccc(N2NC3(CCN(C(N)=O)CC3)NC2=O)cc1`, for which the activity change, negative = inhibition is inactive: -0.0157%. On to `COc1ccc(C(=O)OCC(=O)c2ccccc2)cc1S(=O)(=O)N1CCOCC1`, for which the activity change, negative = inhibition is inactive: -0.0201%. On to `CCOC(=O)C1=C(C)N(C)C(C)=C(C(=O)OCC)C1c1cccnc1`, for which the activity change, negative = inhibition was inactive: 1.37%.

Turning to `COc1cc2c(cc1OC)C(=O)N1[C@H]3c4cc(C)ccc4OC[C@@H]3[C@H](c3ccccc3)[C@]1(C)C(=O)N2`, the activity change, negative = inhibition was inactive: 0.0577%. Take `CCOc1ccc(N=Cc2c(O)n(-c3cccc(C)n3)c(=O)c3ccccc23)cc1`: the activity change, negative = inhibition was inactive: 0.766%. Under `C=CCN(C(=O)Nc1ccccc1)C1CC(=O)N(c2ccc(OC)cc2)C1=O` (stereo unspecified) stands inactive: 0.423%; under `N#Cc1ccc(OCC(=O)N2CCN(S(=O)(=O)c3cccs3)CC2)cc1`, inactive: 0.818%; under `Cc1cc(NC(=O)COc2ncnc3sc(C)c(C)c23)no1`, inactive: -0.747%. In the case of `COc1ccc(NC(NC(=O)c2cccnc2)C(Cl)(Cl)Cl)cc1` (stereo unspecified), the activity change, negative = inhibition is inactive: -0.275%. Regarding `Cc1ccc(Nc2c(-c3ccccn3)nc3cc(C)ccn23)cc1`, the activity change, negative = inhibition is inactive: 0.946%. With `CNC(=O)/C(C#N)=C/c1c(N(Cc2ccccc2)Cc2ccccc2)nc2ccccn2c1=O`, the activity change, negative = inhibition is inactive: 1.26%. Turning to `CCC(C)NCCCOc1ccc(C)cc1OC` (stereo unspecified), the activity change, negative = inhibition is inactive: 0.0239%. Regarding `COc1cccc(NC(=S)/C(=C(\[O-])c2ccc(C)c([N+](=O)[O-])c2)[n+]2ccccc2)c1`, the activity change, negative = inhibition is inactive: -0.0179%. Take `COC(=O)C1=C(C)N(Cc2ccccc2)C(=NCCc2c[nH]c3ccccc23)N[C@H]1c1ccccc1`: the activity change, negative = inhibition was inactive: 0.954%.

As to `COc1ccc(N2CCN(C(=O)c3nn(C)c4c3CS(=O)(=O)c3ccccc3-4)CC2)cc1`, the activity change, negative = inhibition is inactive: -0.348%. `COC(=O)c1ccccc1NC(=O)CC(NCc1ccccc1)C(=O)O` (stereo unspecified): the activity change, negative = inhibition was inactive: -0.642%. For the molecule `CCn1nnc(NC(=O)c2cc3ccccc3o2)n1`, the activity change, negative = inhibition was inactive: 0.0225%. Take `CCc1ccc(NC(=O)N(CCN2CCOCC2)C2CCN(C(C)=O)CC2)cc1`: the activity change, negative = inhibition is inactive: -0.0195%.

As to `CC(=O)C[C@@H](O)CC(=O)[C@@H]1OC(=O)[C@@H](C)C/C=C\Cc2ccccc21`, the activity change, negative = inhibition was inactive: -0.334%. `CSCCC(NS(=O)(=O)c1ccc2ccccc2c1)C(=O)O` (stereo unspecified): the activity change, negative = inhibition is inactive: 0.834%. With `Nc1nc2n(n1)C(c1cccs1)CC(c1ccccc1)N2` (stereo unspecified), the activity change, negative = inhibition is inactive: 0.444%. Next, `CC(=O)OC(C(=O)NCc1ccc2c(c1)OCO2)c1ccccc1Cl` (stereo unspecified): inactive: -0.735%. Take `COc1ccccc1NC(=O)COC(=O)/C=C/c1cccs1`: the activity change, negative = inhibition is inactive: 0.282%.

As for `Cc1cc(C)c(S(=O)(=O)Nc2cc(SCC(=O)O)c(O)c3ccccc23)cc1C`, the activity change, negative = inhibition was inactive: 0.816%. Take `O=C(COC(=O)c1ccccc1SCC(=O)N1CCCC1)NC1CCS(=O)(=O)C1` (stereo unspecified): the activity change, negative = inhibition is inactive: 0.18%.

Turning to `CCOc1ccccc1N(CC(=O)O)S(=O)(=O)c1ccc(C)cc1`, the activity change, negative = inhibition was inactive: 0.686%. In the case of `CCCNC(=O)c1ccccc1N1CCN(CCCCN2C(=O)C3CCCCN3C2=O)CC1` (stereo unspecified), the activity change, negative = inhibition was inactive: 0.555%. As to `CCC(=O)Nc1cc2c(C)cc(=O)oc2cc1C`, the activity change, negative = inhibition was inactive: 0.351%. Next, `O=C1CC(CSc2ccc(Cl)cc2)=NN1`: inactive: 0.222%; `CC1(C)[N+]([O-])=C2C(=[N+]([O-])C1(C)C)c1ccccc1/C2=N\O`: inactive: 0.668%. On to `COc1cccc(CNC(=O)c2cc3c(cc2Cl)N2CCCCCC2=NS3(=O)=O)c1`, for which the activity change, negative = inhibition was inactive: 0.843%. `CC1CCN(c2ccc3c(c2)S(=O)(=O)c2cccc(C(=O)NC4CC4)c2C3=O)CC1`: the activity change, negative = inhibition was inactive: 0.857%.

Regarding `CCN(CC)CCCOc1ccc(C)cc1Br`, the activity change, negative = inhibition is inactive: 0.403%.

As to `CSc1ccc(C=NNc2ccc(S(=O)(=O)Nc3ccccc3C(=O)O)cc2[N+](=O)[O-])cc1`, the activity change, negative = inhibition was inactive: 0.0382%. As to `Cc1ccc(OCC(=O)Nc2ccccc2Sc2ccccc2)c([N+](=O)[O-])n1`, the activity change, negative = inhibition is inactive: -8.1%. With `COc1cc2c(cc1OC)CN(C(=O)CSc1n[nH]c(N)n1)CC2`, the activity change, negative = inhibition was inactive: 0.262%. Consider `Cc1ccc2c(c1)c1c3n2CCCNC3CCC1` (stereo unspecified), for which the activity change, negative = inhibition is inactive: 0.108%. Regarding `CC(C)(C)c1ccc(C(=O)N2CCC(C(=O)NCc3ccncc3)CC2)cc1`, the activity change, negative = inhibition is inactive: 0.739%. On to `Cc1ccc(C(=O)N2CCN(c3ccc(Cl)cc3)CC2)cc1`, for which the activity change, negative = inhibition was inactive: -0.291%. In the case of `COC(=O)[C@]1(Cc2ccccc2)N[C@H](CN(C)S(=O)(=O)c2ccc(F)cc2)[C@@H]2C(=O)N(Cc3ccccc3)C(=O)[C@@H]21`, the activity change, negative = inhibition was inactive: 0.164%. Under `CC(NC(=O)CCC(=O)c1ccc(F)cc1)C1CC2CCC1C2` (stereo unspecified) stands inactive: 0.48%. As to `CCN1C(=O)C(CC(=O)Nc2ccc(OC)cc2)N(CCc2ccccc2F)C1=S` (stereo unspecified), the activity change, negative = inhibition was inactive: 0.838%. As for `CC1(C)C2CCC1(CS(=O)(=O)N1CCN(c3ccccc3F)CC1)C(=O)C2` (stereo unspecified), the activity change, negative = inhibition was inactive: 0.137%. Next, `O=C(Cc1ccccc1)NNC(=O)c1cccs1`: inactive: 0.0777%.
